Results are given in words; binding and its absence hold for the method and conditions named. Binding seen in cells or lysates may run through a third protein. Some entries that bind do so weakly or less than the wild type.
Molecular target: galectin-3 (human (endogenous in human brain vascular smooth muscle cells)) (UniProt P17931)
Experiment: co-IP; lysate of VSMCs with protease inhibitors incubated with anti-galectin-3 antibody or IgG and magnetic beads at 4 °C for 12 h; beads washed with lysis buffer; eluate analysed by Western blot; for TLR4, cells transfected with mimic-NC or tRF-AspGTC mimic

By UniProt entry, the sequences of proteins in these tests, tags left out. Residues count along the entry.
UniProt P17931: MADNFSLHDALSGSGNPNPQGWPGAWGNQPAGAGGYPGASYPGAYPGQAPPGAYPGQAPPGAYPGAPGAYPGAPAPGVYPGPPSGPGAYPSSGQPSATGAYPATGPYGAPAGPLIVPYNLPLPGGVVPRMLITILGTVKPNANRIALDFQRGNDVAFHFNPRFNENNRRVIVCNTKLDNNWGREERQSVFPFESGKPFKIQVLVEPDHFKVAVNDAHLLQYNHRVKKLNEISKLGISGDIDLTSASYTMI
UniProt O00206, residues 24-839: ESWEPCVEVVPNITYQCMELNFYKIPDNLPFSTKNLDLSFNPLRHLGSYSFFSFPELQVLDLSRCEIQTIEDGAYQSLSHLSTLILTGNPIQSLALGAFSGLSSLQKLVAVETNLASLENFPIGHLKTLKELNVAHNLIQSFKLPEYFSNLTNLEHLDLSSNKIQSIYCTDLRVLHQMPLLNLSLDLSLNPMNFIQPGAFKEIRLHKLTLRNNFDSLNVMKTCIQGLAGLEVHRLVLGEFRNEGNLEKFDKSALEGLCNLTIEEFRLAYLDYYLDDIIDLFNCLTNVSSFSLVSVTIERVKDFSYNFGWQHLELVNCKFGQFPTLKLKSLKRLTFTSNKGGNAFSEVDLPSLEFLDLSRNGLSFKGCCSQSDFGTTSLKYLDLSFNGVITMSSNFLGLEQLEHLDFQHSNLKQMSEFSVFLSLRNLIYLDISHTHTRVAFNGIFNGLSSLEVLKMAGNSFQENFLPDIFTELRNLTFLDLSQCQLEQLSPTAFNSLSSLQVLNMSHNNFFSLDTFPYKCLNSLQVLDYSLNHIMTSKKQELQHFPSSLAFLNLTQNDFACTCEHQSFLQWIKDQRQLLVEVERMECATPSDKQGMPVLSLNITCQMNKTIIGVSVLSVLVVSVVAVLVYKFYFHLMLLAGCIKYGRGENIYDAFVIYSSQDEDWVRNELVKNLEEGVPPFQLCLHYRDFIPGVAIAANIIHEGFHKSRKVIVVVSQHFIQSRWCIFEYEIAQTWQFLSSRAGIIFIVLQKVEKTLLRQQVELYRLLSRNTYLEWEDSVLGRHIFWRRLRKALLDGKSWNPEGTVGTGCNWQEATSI

binding: binds
Substance: toll-like receptor 4 (from UniProt O00206 24-839)

— publication PMC11704088
